Source: PubChem BioAssay AID248 (DTP/NCI, 2004)
The list shows only some results of the screen, not a fair sample: it gathers tests that were run many times, whatever their T/C, doses with no T/C, and many T/C values between a quarter and a half above the control. Further doses and runs are listed elsewhere. T/C gives the treated animals as a percentage of the vehicle group. Some doses have a count of surviving animals in place of a T/C: the source files T/C as zero there, which appears to mark a toxic dose or a test without result, not a measured value. Some doses without a T/C left all or most animals alive at the check, yet need not have been tolerated: survival well below the control is almost never listed, so the zero probably covers shortened survival too. Counts of survivors are from the toxicity check (mostly the fifth day) where no day follows; animals may have died later. Schedules are NCI's codes, taken here to give the interval after Q, in days (D) or hours (H), and the number of doses after X. Some entries hold several experiments; the values are given in rising order. Where survival is the endpoint, the PubChem record calls one and a half times the control and up active, and a quarter to a half above the control has no call in these data; cut-offs in other NCI protocols can differ. Some T/C values are followed by the survivors on the day toxicity was checked, most often the fifth; without a count, all were alive then.

Tested on: L1210 leukemia ip in BDF1 mice, survival T/C
Assay: NCI In Vivo Anticancer Drug Screen. Data for tumor model L1210 Leukemia (intraperitoneal) in B6D2F1 (BDF1) mice
Details: T/C endpoint: mean survival time, higher T/C = longer survival
[1] = dose: 400.0 mg/kg/injection, schedule: Q04DX002 (ip), vehicle: saline with Tween-80
[2] = dose: 400.0 mg/kg/injection, schedule: Q04DX002 (ip), vehicle: Klucel (hydroxypropylcellulose) (HPC)
[3] = dose: 400.0 mg/kg/injection, schedule: Q04DX003 (ip), vehicle: saline
[4] = dose: 100.0 mg/kg/injection, schedule: Q01DX009 (ip), vehicle: saline with Tween-80
[5] = dose: 200.0 mg/kg/injection, schedule: Q04DX003 (ip), vehicle: saline with Tween-80
[6] = dose: 400.0 mg/kg/injection, schedule: Q01DX009 (ip), vehicle: saline with Tween-80
[7] = dose: 400.0 mg/kg/injection, schedule: Q01DX009 (ip), vehicle: Klucel (hydroxypropylcellulose) (HPC)

C#CP(CCCC)CCCC
survivor count (dose: 200.0 mg/kg/injection, schedule: Q04DX002 (ip), vehicle: saline with Tween-80): 0 of 3 | survivor count [1]: 0 of 3

Cc1ccc(NCC(=O)NN)cc1
survivor count [2]: 1 of 3

COc1ccc(/C=C/[N+](=O)[O-])cc1
survivor count (dose: 50.0 mg/kg/injection, schedule: Q04DX002 (ip), vehicle: other): 3 of 3 | survivor count (dose: 100.0 mg/kg/injection, schedule: Q04DX002 (ip), vehicle: other): 0 of 3

NNC(=O)c1ccccn1
survivor count (dose: 200.0 mg/kg/injection, schedule: Q01DX009 (ip), vehicle: water): 0 of 6 | survivor count (dose: 300.0 mg/kg/injection, schedule: Q01DX001 (ip), vehicle: water): 0 of 6 | survivor count (dose: 400.0 mg/kg/injection, schedule: Q01DX009 (ip), vehicle: water): 0 of 6 | survivor count (dose: 500.0 mg/kg/injection, schedule: Q01DX001 (ip), vehicle: water): 0 of 6

O=C(Cl)c1c(Cl)c(Cl)c(C(=O)Cl)c(Cl)c1Cl
survivor count (dose: 100.0 mg/kg/injection, schedule: Q01DX009 (ip), vehicle: saline): 4 of 6 | survivor count (dose: 200.0 mg/kg/injection, schedule: Q04DX003 (ip), vehicle: saline): 6 of 6 | survivor count [3]: 6 of 6

CCn1c(C)[n+](CCCOS(=O)(=O)[O-])c2ccccc21
survivor count [3]: 2 of 6

C[N+](C)(C)CCOC(=O)c1ccc(CCl)cc1
survivor count (dose: 200.0 mg/kg/injection, schedule: Q04DX002 (ip), vehicle: other): 2 of 3 | survivor count (dose: 400.0 mg/kg/injection, schedule: Q04DX002 (ip), vehicle: other): 1 of 3

CCOC(=O)N/N=C/C(Br)=C\c1ccccc1
survivor count [4]: 3 of 3 | survivor count [1]: 1 of 3

NC(=S)N/N=C/c1ccc(OC(=O)COc2ccccc2Cl)cn1
T/C [5]: 135 % of control | survivor count (dose: 600.0 mg/kg/injection, schedule: Q04DX003 (ip), vehicle: saline with Tween-80): 6 of 6

O=C(C[n+]1ccccc1/C=N/O)c1ccccc1
survivor count (dose: 150.0 mg/kg/injection, schedule: Q01DX001 (ip), vehicle: other): 1 of 6 | survivor count (dose: 300.0 mg/kg/injection, schedule: Q01DX001 (ip), vehicle: other): 1 of 6

N/C(CCl)=N\OC(=O)c1ccccc1
survivor count (dose: 100.0 mg/kg/injection, schedule: Q04DX002 (ip), vehicle: Klucel (hydroxypropylcellulose) (HPC)): 0 of 3 | survivor count (dose: 200.0 mg/kg/injection, schedule: Q04DX002 (ip), vehicle: Klucel (hydroxypropylcellulose) (HPC)): 0 of 3 | survivor count [2]: 0 of 3

CC1c2c(c3ccccc3n2C)CC[N+]1(C)C (stereo unspecified)
survivor count (dose: 100.0 mg/kg/injection, schedule: Q04DX002 (ip), vehicle: carboxymethylcellulose (CMC)): 0 of 3, 4 of 6, 5 of 6, 3 of 3 | survivor count (dose: 100.0 mg/kg/injection, schedule: Q04DX003 (ip), vehicle: carboxymethylcellulose (CMC)): 6 of 6 | survivor count (dose: 200.0 mg/kg/injection, schedule: Q04DX002 (ip), vehicle: carboxymethylcellulose (CMC)): 0 of 3 and 2 of 6 | survivor count (dose: 200.0 mg/kg/injection, schedule: Q04DX003 (ip), vehicle: carboxymethylcellulose (CMC)): 0 of 6 | survivor count (dose: 400.0 mg/kg/injection, schedule: Q04DX002 (ip), vehicle: carboxymethylcellulose (CMC)): 0 of 3 and 2 of 6 | survivor count (dose: 400.0 mg/kg/injection, schedule: Q04DX003 (ip), vehicle: carboxymethylcellulose (CMC)): 0 of 6

O=C(/C=C/c1ccccc1)NC(=S)Nc1cccc2ccccc12
T/C [4]: 94 and 95 % of control [5 of 6 alive] | survivor count [4]: 1 of 3 and 2 of 3 | survivor count (dose: 200.0 mg/kg/injection, schedule: Q01DX009 (ip), vehicle: saline with Tween-80): 0 of 3, 1 of 3, 2 of 6 | survivor count [6]: 0 of 3 and 0 of 6

O=C(Nc1ncccc1[N+](=O)[O-])C(Cl)(Cl)Cl
survivor count [7]: 2 of 3

BrCCCc1ccccc1
survivor count (dose: 300.0 mg/kg/injection, schedule: Q01DX001 (ip), vehicle: saline): 3 of 6

O=C1[O][Hg][c]2c1cccc2[N+](=O)[O-]
survivor count (dose: 40.0 mg/kg/injection, schedule: Q04DX003 (ip), vehicle: Klucel (hydroxypropylcellulose) (HPC)): 3 of 6

C=C1C(=O)OC2C1CCC(=C)C1CC(O)C(=C)C12 (stereo unspecified)
survivor count (dose: 150.0 mg/kg/injection, schedule: Q01DX009 (ip), vehicle: saline with Tween-80): 0 of 6 | survivor count (dose: 225.0 mg/kg/injection, schedule: Q01DX009 (ip), vehicle: saline with Tween-80): 0 of 6

CCCCCCCCC(=O)N(C(C)C)C(C)C
survivor count (dose: 400.0 mg/kg/injection, schedule: Q01DX009 (ip), vehicle: carboxymethylcellulose (CMC)): 2 of 3

O=C(NNCN1C(=O)c2ccccc2C1=O)c1ccccc1
survivor count [4]: 5 of 6 | survivor count [6]: 6 of 6

CCCOc1ccc(C=Nc2ccc(C)cc2)cc1
survivor count [7]: 1 of 6

c1ccc2c(c1)CCc1ccccc1C2NC1=NCCO1
survivor count (dose: 100.0 mg/kg/injection, schedule: Q04DX003 (ip), vehicle: saline with Tween-80): 3 of 6 | survivor count [5]: 4 of 6 | survivor count (dose: 400.0 mg/kg/injection, schedule: Q04DX003 (ip), vehicle: saline with Tween-80): 1 of 6

CS(=O)(=O)OCCCCCCCCOS(C)(=O)=O
T/C (dose: 16.0 mg/kg/injection, schedule: Q01DX009 (ip), vehicle: Klucel (hydroxypropylcellulose) (HPC)): 134 % of control [5 of 6 alive] | T/C (dose: 25.0 mg/kg/injection, schedule: Q01DX009 (ip), vehicle: Klucel (hydroxypropylcellulose) (HPC)): 142 % of control | survivor count (dose: 100.0 mg/kg/injection, schedule: Q04DX003 (ip), vehicle: Klucel (hydroxypropylcellulose) (HPC)): 6 of 6 | survivor count (dose: 200.0 mg/kg/injection, schedule: Q04DX003 (ip), vehicle: Klucel (hydroxypropylcellulose) (HPC)): 1 of 6 | survivor count (dose: 400.0 mg/kg/injection, schedule: Q04DX003 (ip), vehicle: Klucel (hydroxypropylcellulose) (HPC)): 0 of 6
